Laboratory results reported in US10857167B2, “Use of oligosaccharide compositions to enhance weight gain” (Children's Hospital Medical Center, priority 2015, dated 2020).
Values joined by “and” are separate entries in the source; they are usually repeats but may differ in a detail not shown here. Identical values can stand only once. Further values from the same series stand in other lists.

Tested on: distal small bowel gene expression
Test: RNA sequencing / transcriptional analysis of small bowel 56 days after ICR (2′-FL signature response)
Assay type: in vivo, mouse
From the text: Luminal small bowel contents were expressed into AllProtect Tissue Reagent (Qiagen Inc, CA). Bacterial DNA was extracted using the AllPrep DNA/RNA Mini Kit (Qiagen Inc, CA), according to kit instructions and prior to sequencing (described below). Small bowel tissue samples for RNA were placed into RNA Later (Life Technologies, NY). RNA extraction was accomplished following Qiagen RNeasy Plus Kit instruction (Qiagen Inc, CA). All nucleic acid samples were then stored at -80 Celsius until sequenced (described below). Transcriptional analysis was carried out on resected and harvested small bowel samples obtained from operated mice taken to 8 weeks. Murine RNA sequencing libraries were prepared from approximately 1.5 μg RNA using the TruSeq RNA Sample Preparation Kit (Illumina, Calif.) and sequenced using the HiSeq 2000 Sequencing System (Illumina, Calif.) with single-end 50 bp reads. Following removal of primers and barcodes, sequences were aligned to the mm10 genome using reference annotations from UCSC (Rosenbloom et al. (2015) Nucleic acids research 43: […]-681) (n=36,186 entities). Aligned reads were quantified and used to compute reads per kilobase per million mapped reads (RPKM); raw counts were then normalized using the DESeq algorithm and each harvested sample was baselined to its own resected sample. A filter was applied to the data, requiring at least three reads in all samples of at least one of the four experimental conditions (n=14,489 entities). The data discussed in this publication have been deposited in NCBI's Gene Expression Omnibus and are accessible through NCBI Gene Expression Omnibus (GEO) Series accession number GSE72590. Edgar et al. (2002) Nucleic acids research 30: 207-210. In order to characterize the impact of 2'-FL supplementation while accounting for the effect of ileoecal resection, a t-test was applied between resected and harvested samples within control and experimental animals. Significance was set at a p-value of ≤0.05 and a fold change of 3, which generated 2,576 differentially regulated entities across two comparisons. Gene set unions and intersections of the control and experimental gene sets were identified through Venn diagrams. From the master list, the gene list specific to animals supplemented with 2'-FL were removed in order to identify genes differentially regulated only by ICR (n=546 entities); this gene set characterizes the adaptive response. Further, the 2'-FL response (n=2,030 entities) was identified by removing the adaptive response signature described above from the master list, leaving only genes regulated by 2'-FL supplementation after ICR which were not found in the non-supplemented adaptive response. Heatmaps were generated using hierarchical clustering with the Pearson's Centered distance metric and the average linkage rule; both entities and samples were clustered. All genomic analyses described above were performed in Strand NGS (Strand Life Sciences, CA). Gene list functional enrichment was initially discovered using ToppFun, a member of the ToppGene Suite. Chen et al. (2009) Nucleic acids research 37: […]-311. No statistical correction was selected. Gene lists were further analyzed using ClueGO, a plugin for Cytoscape designed to decipher functionally grouped gene ontology and pathway annotation networks. Bindea et al. (2009) Bioinformatics 25: 1091-1093. At the time of data analysis, the annotation files were updated from sources to Jan. 1, 2015. “GO Term Fusion” was enabled to manage ontologic term redundancy and network specificity was set to medium. Results were restricted to pathways with p≤0.05 using Benjamini-Hochberg correction and Kappa scoring was set to 0.4. Biocyc annotations were assigned a rectangle, gene ontology biologic processes were assigned an ellipse, and […] annotations were assigned a diamond shape. No meaning was assigned to size or color. […]

C[C@@H]1O[C@@H](O[C@H]2[C@H](O[C@H]3[C@H](O)[C@@H](O)C(O)O[C@@H]3CO)O[C@H](CO)[C@H](O)[C@@H]2O)[C@@H](O)[C@H](O)[C@@H]1O (stereo partly drawn) [2′-FL, 2′-fucosyllactose]
Fold Change (Pre- to Post-op) (Fam96a): 5.558 | Fold Change (Pre- to Post-op) (Fam96b): 3.112 | Fold Change (Pre- to Post-op) (Fam132a): 3.194 | Fold Change (Pre- to Post-op) (Fam136a): 4.738 | Fold Change (Pre- to Post-op) (Fam162a): 5.356 | Fold Change (Pre- to Post-op) (Fam221b): 4.095 | Fold Change (Pre- to Post-op) (Fau): 3.379 | Fold Change (Pre- to Post-op) (Fbxl5): 3.517 | Fold Change (Pre- to Post-op) (Fbxw9): 3.597 | Fold Change (Pre- to Post-op) (Fdps): 3.298 | Fold Change (Pre- to Post-op) (Fdx1): 3.253 | Fold Change (Pre- to Post-op) (Fdxacb1): 3.072 | Fold Change (Pre- to Post-op) (Fis1): 3.366 | Fold Change (Pre- to Post-op) (Fmr1nb): 12.73 | Fold Change (Pre- to Post-op) (Fopnl): 3.476 | Fold Change (Pre- to Post-op) (Frmd8os): 3.538 | Fold Change (Pre- to Post-op) (Fscn3): 6.024 | Fold Change (Pre- to Post-op) (Gabarapl2): 3.719 | Fold Change (Pre- to Post-op) (Gchfr): 6.958 | Fold Change (Pre- to Post-op) (Ghrl): 3.872 | Fold Change (Pre- to Post-op) (Gin1): 3.504 | Fold Change (Pre- to Post-op) (Glod5): 3.452 | Fold Change (Pre- to Post-op) (Glrx3): 3.293 | Fold Change (Pre- to Post-op) (Gm2382): 3.248 | Fold Change (Pre- to Post-op) (Gm3258): 3.529 | Fold Change (Pre- to Post-op) (Gm4013): 4.014 | Fold Change (Pre- to Post-op) (Gm4787): 3.987 | Fold Change (Pre- to Post-op) (Gm5617): 3.339 | Fold Change (Pre- to Post-op) (Gm6297): 4.827 | Fold Change (Pre- to Post-op) (Gm6484): 3.962 | Fold Change (Pre- to Post-op) (Gm9780): 3.371 | Fold Change (Pre- to Post-op) (Gm9895): 3.057 | Fold Change (Pre- to Post-op) (Gm9926): 5.483 | Fold Change (Pre- to Post-op) (Gm10012): 3.729 | Fold Change (Pre- to Post-op) (Gm10069): 3.514 | Fold Change (Pre- to Post-op) (Gm10872): 4.049 | Fold Change (Pre- to Post-op) (Gm11627): 3.534 | Fold Change (Pre- to Post-op) (Gm12408): 8.868 | Fold Change (Pre- to Post-op) (Gm12511): 3.199 | Fold Change (Pre- to Post-op) (Gm12657): 3.132 | Fold Change (Pre- to Post-op) (Gm13446): 3.112 | Fold Change (Pre- to Post-op) (Gm14057): 3.048 | Fold Change (Pre- to Post-op) (Gm14207): 3.281 | Fold Change (Pre- to Post-op) (Gm14295): 5.305 | Fold Change (Pre- to Post-op) (Gm14399): 8.008 | Fold Change (Pre- to Post-op) (Gm15133): 7.741 | Fold Change (Pre- to Post-op) (Gm15401): 3.109 | Fold Change (Pre- to Post-op) (Gm15421): 3.531 | Fold Change (Pre- to Post-op) (Gm15441): 4.992 | Fold Change (Pre- to Post-op) (Gm17619): 5.884 | Fold Change (Pre- to Post-op) (Gm20559): 3.18 | Fold Change (Pre- to Post-op) (Gm20748): 3.446 | Fold Change (Pre- to Post-op) (Gm20939): 4.759 | Fold Change (Pre- to Post-op) (Gmfg): 4.953 | Fold Change (Pre- to Post-op) (Gng10): 3.124 | Fold Change (Pre- to Post-op) (Gng11): 3.679 | Fold Change (Pre- to Post-op) (Gpx1): 3.648 | Fold Change (Pre- to Post-op) (Gpx4): 6.065 | Fold Change (Pre- to Post-op) (Gramd2): 6.347 | Fold Change (Pre- to Post-op) (Gsta3): 5.905 | Fold Change (Pre- to Post-op) (Gsta4): 3.877 | Fold Change (Pre- to Post-op) (Gstm4): 3.681 | Fold Change (Pre- to Post-op) (Gstt2): 3.468 | Fold Change (Pre- to Post-op) (Gt(ROSA)26Sor): 5.17 | Fold Change (Pre- to Post-op) (Gtf2a2): 3.625 | Fold Change (Pre- to Post-op) (Gtf2h5): 3.263 | Fold Change (Pre- to Post-op) (Guca1a): 9.306 | Fold Change (Pre- to Post-op) (Guk1): 7.262 | Fold Change (Pre- to Post-op) (H2afz): 3.529 | Fold Change (Pre- to Post-op) (H3f3a): 3.302 | Fold Change (Pre- to Post-op) (Hagh): 3.337 | Fold Change (Pre- to Post-op) (Haus7): 3.012 | Fold Change (Pre- to Post-op) (Hcrtr1): 4.641 | Fold Change (Pre- to Post-op) (Hddc2): 4.255 | Fold Change (Pre- to Post-op) (Hdhd3): 3.186 | Fold Change (Pre- to Post-op) (Hebp2): 3.635 | Fold Change (Pre- to Post-op) (Higd1a): 3.567 | Fold Change (Pre- to Post-op) (Hint3): 4.975 | Fold Change (Pre- to Post-op) (Hist1h2ba): 3.294 | Fold Change (Pre- to Post-op) (Hist1h2bb): 3.163 | Fold Change (Pre- to Post-op) (Hist1h2bc): 3.588 | Fold Change (Pre- to Post-op) (Hist1h2bf): 3.002 | Fold Change (Pre- to Post-op) (Hist1h2bg): 3.16 | Fold Change (Pre- to Post-op) (Hist1h2bh): 3.19 | Fold Change (Pre- to Post-op) (Hist1h2bj): 3.203 | Fold Change (Pre- to Post-op) (Hist1h2bl): 3.137 | Fold Change (Pre- to Post-op) (Hist1h2bm): 3.186 | Fold Change (Pre- to Post-op) (Hist1h2bp): 3.172 | Fold Change (Pre- to Post-op) (Hist1h2bq): 3.205 | Fold Change (Pre- to Post-op) (Hist1h2br): 3.199 | Fold Change (Pre- to Post-op) (Hist1h4i): 3.129 | Fold Change (Pre- to Post-op) (Hist2h2aa2): 3.081 | Fold Change (Pre- to Post-op) (Hlcs): −3.008 | Fold Change (Pre- to Post-op) (Hmbs): 3.128 | Fold Change (Pre- to Post-op) (Hnmt): 3.521 | Fold Change (Pre- to Post-op) (Hoga1): 6.0542 | Fold Change (Pre- to Post-op) (Hrasls): 5.154 | Fold Change (Pre- to Post-op) (Hsd11b1): 3.929 | Fold Change (Pre- to Post-op) (Hspe1): 3.664 | Fold Change (Pre- to Post-op) (Htatip2): 3.421 | Fold Change (Pre- to Post-op) (Ict1): 3.255 | Fold Change (Pre- to Post-op) (Idi1): 4.609 | Fold Change (Pre- to Post-op) (Idnk): 3.423 | Fold Change (Pre- to Post-op) (Ifi27l2a): 3.444 | Fold Change (Pre- to Post-op) (Ifitm6): 3.343 | Fold Change (Pre- to Post-op) (Ifrd1): 5.172 | Fold Change (Pre- to Post-op) (Igj): 3.264 | Fold Change (Pre- to Post-op) (Il18): 3.224 | Fold Change (Pre- to Post-op) (Immp1l): 5.377 | Fold Change (Pre- to Post-op) (Immp2l): 3.062 and 3.061 | Fold Change (Pre- to Post-op) (Insig1): 5.379 | Fold Change (Pre- to Post-op) (Insig2): 3.408 | Fold Change (Pre- to Post-op) (Insl6): 6.105 | Fold Change (Pre- to Post-op) (Iyd): 3.776 | Fold Change (Pre- to Post-op) (Jmjd7): 3.433 | Fold Change (Pre- to Post-op) (Kbtbd3): 3.228 | Fold Change (Pre- to Post-op) (Khk): 3.451 | Fold Change (Pre- to Post-op) (Klhl9): 3.074 | Fold Change (Pre- to Post-op) (Krt14): 8.678 | Fold Change (Pre- to Post-op) (LOC100503295): 3.232
